The series addresses CYP3A4 in POPC Nanodiscs (Homo sapiens, UniProt P08684, S18F). As to the kind of experiment: Product formation. The class given is biochemical. Particulars: binding intermediate with 1 substrate molecule bound; 37 C, pH 7.4.

Chains of the proteins cited; added tags and fusions are not shown. Lines headed by an entry give the natural chain unless they say otherwise; changes in a name come on top.
UniProt P08684: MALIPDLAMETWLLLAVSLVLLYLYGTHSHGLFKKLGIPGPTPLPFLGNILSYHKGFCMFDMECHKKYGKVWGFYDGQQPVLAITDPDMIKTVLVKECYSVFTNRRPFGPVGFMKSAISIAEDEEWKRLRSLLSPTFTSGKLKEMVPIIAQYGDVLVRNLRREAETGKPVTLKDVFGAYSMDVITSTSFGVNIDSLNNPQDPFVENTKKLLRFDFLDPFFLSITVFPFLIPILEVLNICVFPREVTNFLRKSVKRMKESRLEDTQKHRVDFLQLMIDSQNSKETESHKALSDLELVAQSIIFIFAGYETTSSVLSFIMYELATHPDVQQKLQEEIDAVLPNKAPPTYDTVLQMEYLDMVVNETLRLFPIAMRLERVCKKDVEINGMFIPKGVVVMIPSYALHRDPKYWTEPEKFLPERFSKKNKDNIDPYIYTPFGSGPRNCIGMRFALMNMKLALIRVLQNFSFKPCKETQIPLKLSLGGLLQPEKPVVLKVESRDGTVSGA

In paper PMC5800941 (Biochemistry, 2017) one finds Product formation rate data, which are given here for 1 compound.

Structures are written as SMILES.

`CC(C)c1c(C(=O)Nc2ccccc2)c(-c2ccccc2)c(-c2ccc(F)cc2)n1CC[C@@H](O)C[C@@H](O)CC(=O)O` [ARVS, atorvastatin]: the Product formation rate was 17 [15.6 – 21.5] min^−1.
